This note sets out measurements from patent US20260266848A1, “COMPOSITIONS AND METHODS FOR DIAGNOSING AND TREATING DYSTONIA” (Duke University, priority 2023, published 2026).

Type in all cases: cell-based, mouse
The test system of data set [1] is DYT-TOR1A MEF EVs. The experiment in a line: Quantitative LC-MS/MS proteomics of EVs from drug-treated DYT-TOR1A MEF cultures (ritonavir, salubrinal). The conditions noted are these: for DYT1/DYT1 + RTV: Directionality of protein change in MEFs EV dataset in DYT1 derived MEFs treated with Ritonavir; for RTV Corrective Direction: Ritonavir; for RTV Corrective Direction / Sal Corrective Direction: was treatment in MEF's in the direction of WT-like?; for Sal Corrective Direction: Salubrinal.

For another data set, the system named is WT MEF EVs. The experiment in a line: Quantitative LC-MS/MS proteomics of EVs from ISRIB-treated WT MEF cultures. The conditions noted are these: Directionality of protein change in MEFs EV dataset in WT derived MEFs treated with ISRIB.
For data set [2], the system named is DYT-TOR1A MEF EVs. The experiment in a line: Quantitative LC-MS/MS proteomics of MEF EVs, DYT-TOR1A genotype vs WT. The conditions noted are these: Directionality of protein change in MEFs EV dataset between WT and DYT1 derived MEFs.

B1: Ndnf (protein, UniProt Q8C119 20-568, looked up)
Protein NDNF: QKLPTRDEELFQMQIRDKEFFHDSSVIPDGAEVSSYLFRDTPRRYFFMVEEDNTPLSVTVTPCDAPLEWKLSLQELHEGSSADGSGDPELLDQQKQQMTDVEGTELFSYKGNDVEYFLSSSSPSGLYQLELLSTEKDTHFKVYATTTPESDQPYPELPYDPRVDVTSFGRTTVTLAWKPSPTASILKQPIEYCVVINKEHNFKSLCAAETKMNADDAFMVAPKPGLDFNPFDFAHFGFPTDNLGKDRSLLAKPSPKVGRHVYWRPKVDIQKICIGNKNIFTVSDLKPDTQYYFDVFMVNTNTNMSTAYVGAFVRTKEEAKQKTVELKDGRVTDVFVKRKGKKFLRFAPVSSHQKVTFFIHSCMDAVQVQVRRDGRLLLSQNVEGIRQFQLRGKPKGKYLIRLKGNRKGASKLKILATTRPSKHAFPSLPEDTRIKAFDKLRTCSSVTVAWLGTQERRKFCIYRKEVDGNYSEDQKRREQNQCLGPDTRKKSEKVLCKYFHSQNLQKAVTTETIRDLQPGKSYLLDVYVVGHGGHSVKYQSKIVKTRKVC
As for B1, in the data set on DYT-TOR1A MEF EVs [1], the “DYT1/DYT1 + RTV” value was “DOWN”, the “RTV Corrective Direction” value was “Yes” and the “Sal Corrective Direction” value is listed as “No”. Also, in the data set on WT MEF EVs, the “WT + ISRIB/WT” value is recorded as “DOWN”. Besides, the DYT1/WT entry in the data set on DYT-TOR1A MEF EVs [2] is reported as “DOWN”.

B2: Acaa1a (protein, UniProt Q921H8 27-424, looked up)
3-ketoacyl-CoA thiolase A, …: SARFPQASASDVVVVHGRRTPIGRASRGGFKNTTPDELLSAVLTAVLQDVRLKPEQLGDISVGNVLEPGAGAVMARIAQFLSGIPETVPLSTVNRQCSSGLQAVANIAGGIRNGSYDIGMACGVESMSLSGMGNPGNISSRLLESEKARDCLTPMGMTSENVAERFGISRQKQDDFALASQQKAASAQSRGCFRAEIVPVTTTVLDDKGDKKTITVSQDEGVRPSTTMQGLAKLKPAFKDGGSTTAGNSSQVSDGAAAVLLARRSKAEELGLPILGVLRSYAVVGVPPDVMGIGPAYAIPAALQKAGLTVNDIDIFEINEAFASQAVYCVEKLGIPAEKVNPLGGAIALGHPLGCTGARQVVTLLNELKRRGRRAYGVVSMCIGTGMGAAAVFEYPGN
Regarding B2, in the data set with DYT-TOR1A MEF EVs [1], the “DYT1/DYT1 + RTV” value is given as “DOWN”, the “RTV Corrective Direction” value is “Yes” and the “Sal Corrective Direction” value is listed as “No”. Besides, in the data set with WT MEF EVs, the “WT + ISRIB/WT” value was “DOWN”. Also, the DYT1/WT entry in the data set with DYT-TOR1A MEF EVs [2] was “DOWN”.

B3: Tgfb2 (protein, UniProt P27090 303-414, looked up)
Transforming growth factor …: ALDAAYCFRNVQDNCCLRPLYIDFKRDLGWKWIHEPKGYNANFCAGACPYLWSSDTQHTKVLSLYNTINPEASASPCCVSQDLEPLTILYYIGNTPKIEQLSNMIVKSCKCS
Take B3: the “DYT1/DYT1 + Sal” value in the data set on DYT-TOR1A MEF EVs [1] (Directionality of protein change in MEFs EV dataset in DYT1 derived MEFs treated with salubrinal) was “DOWN”. Also, in the data set with DYT-TOR1A MEF EVs [1], the “RTV Corrective Direction” value is “No” and the “Sal Corrective Direction” value was “Yes”. In addition, the “WT + ISRIB/WT” value in the data set on WT MEF EVs is on record as “DOWN”. The DYT1/WT entry in the data set with DYT-TOR1A MEF EVs [2] is “DOWN”.

B4: Rap2b (protein, UniProt P61226 1-180, looked up)
Ras-related protein Rap-2b: MREYKVVVLGSGGVGKSALTVQFVTGSFIEKYDPTIEDFYRKEIEVDSSPSVLEILDTAGTEQFASMRDLYIKNGQGFILVYSLVNQQSFQDIKPMRDQIIRVKRYERVPMILVGNKVDLEGEREVSYGEGKALAEEWSCPFMETSAKNKASVDELFAEIVRQMNYAAQPNGDEGCCSAC
As for B4, in the data set on DYT-TOR1A MEF EVs [1], the “DYT1/DYT1 + RTV” value is “DOWN”, the “RTV Corrective Direction” value was “Yes” and the “Sal Corrective Direction” value is on record as “No”. Besides, in the data set on WT MEF EVs, the “WT + ISRIB/WT” value is recorded as “DOWN”. Moreover, in the data set with DYT-TOR1A MEF EVs [2], the DYT1/WT result is “DOWN”.

B5: Psmd12 (protein, UniProt Q9D8W5 2-456, looked up)
26S proteasome non-ATPase …: ADGGSERADGRIVKMEVDYSATVDQRLPECEKLAKEGRLQEVIETLLSLEKQTRTASDMVSTSRILVAVVKMCYEAKEWDLLNENIMLLSKRRSQLKQAVAKMVQQCCTYVEEITDLPVKLRLIDTLRMVTEGKIYVEIERARLTKTLATIKEQNGDVKEAASILQELQVETYGSMEKKERVEFILEQMRLCLAVKDYIRTQIISKKINTKFFQEENTENLKLKYYNLMIQLDQHEGSYLSICKHYRAIYDTPCIQAESDKWQQALKSVVLYVILAPFDNEQSDLVHRISSDKKLEEIPKYKDLLKLFTTMELMRWSTLVEDYGVELRKGSSETPATDVFSSTEEGEKRWKDLKSRVVEHNIRIMAKYYTRITMKRMAQLLDLSVDESEAFLSNLVVNKTIFAKVDRLAGVINFQRPKDPNNLLNDWSQKLNSLMSLVNKTTHLIAKEEMIHNLQ
With B5, in the data set on DYT-TOR1A MEF EVs [1], the “DYT1/DYT1 + RTV” value was “DOWN”, the “RTV Corrective Direction” value is listed as “Yes” and the “Sal Corrective Direction” value was “No”. Besides, in the data set with WT MEF EVs, the “WT + ISRIB/WT” value is recorded as “DOWN”. Also, the DYT1/WT entry in the data set with DYT-TOR1A MEF EVs [2] is “DOWN”.

B6: Ehd4 (protein, UniProt Q9EQP2 1-541, looked up)
EH domain-containing protein 4: MFSWMGRQAGGRERSGGMDAVQTVTGGLRSLYQRKVLPLEEAYRFHEFHSPALEDADFENKPMILLVGQYSTGKTTFIRYLLEQDFPGMRIGPEPTTDSFIAVMYGETEGSTPGNALVVDPKKPFRKLSRFGNAFLNRFMCSQLPNQVLKSISIIDSPGILSGEKQRISRGYDFCQVLQWFAERVDRIILLFDAHKLDISDEFSEAIKAFRGQDDKIRVVLNKADQVDTQQLMRVYGALMWSLGKVINTPEVLRVYIGSFWAQPLQNTDNRRLFEAEAQDLFRDIQSLPQKAAVRKLNDLIKRARLAKVHAYIISYLKKEMPNMFGKENKKRELIYRLPEIYVQLQREYQISAGDFPEVKAMQEQLENYDFTKFHSLKPKLIEAVDNMLTNKISSLMGLISQEEMNMPTQMVQGGAFDGTTEGPFNQGYGEGAKEGADEEEWVVAKDKPVYDELFYTLSPINGKISGVNAKKEMVTSKLPNSVLGKIWKLADCDCDGMLDEEEFALAKHLIKIKLDGYELPNSLPPHLVPPSHRKSLPKAD
In the case of B6, in the data set with DYT-TOR1A MEF EVs [1], the “DYT1/DYT1 + RTV” value is recorded as “DOWN”, the “RTV Corrective Direction” value is on record as “Yes” and the “Sal Corrective Direction” value was “No”. The “WT + ISRIB/WT” value in the data set with WT MEF EVs was “DOWN”. Further, in the data set with DYT-TOR1A MEF EVs [2], the DYT1/WT result is “DOWN”.

B7: Mars (protein, UniProt Q68FL6 1-902, looked up)
Methionine--tRNA ligase, …: MRLFVSEGSPGSLPVLAAAARARGRAELLISTVGPEECVVPFLTRPKVPVLQLDSGNYLFSASAICRYFFLLCGWEQDDLTNQWLEWEATELQPVLSAALHCLVVQGKKGEDILGPLRRVLTHIDHSLSRQNCPFLAGDTESLADIVLWGALYPLLQDPAYLPEELGALQSWFQTLSTQEPCQRAAETVLKQQGVLALRLYLQKQPQPQPPPPEGRTVSNELEEEELATLSEEDIVTAVAAWEKGLESLPPLKLQQHPVLPVPGERNVLITSALPYVNNVPHLGNIIGCVLSADVFARYCRLRQWNTLYLCGTDEYGTATETKAMEEGLTPREICDKYHAIHADIYRWFGISFDTFGRTTTPQQTKITQDIFQRLLTRGFVLRDTVEQLRCERCARFLADRFVEGVCPFCGYEEARGDQCDRCGKLINAIELKKPQCKICRSCPVVRSSQHLFLDLPKLEKRLEDWLGKTVPGSDWTPNARFIIRSWLRDGLKPRCITRDLKWGTPVPLEGFEDKVFYVWFDATIGYVSITANYTDQWEKWWKNPEQVDLYQFMAKDNVPFHGLVFPCSVLGAEDNYTLVKHIIATEYLNYEDGKFSKSRGIGVFGDMAKDTGIPADIWRFYLLYIRPEGQDSAFSWTDLLIKNNSELLNNLGNFINRAGMFVSKFFGGCVPEMALTPDDRRLVAHVSWELQHYHQLLEKVRIRDALRSILTISRHGNQYIQVNEPWKRIKGGEMDRQRAGTVTGMAVNMAALLSVMLQPYMPTVSSTIQTQLQLPPAACRILATSFICTLPAGHRIGTVSPLFQKLENDQIENLRQRFGGGQAKGSPKPAAVEAVTAAGSQHIQTLTDEVTKQGNVVRELKAQKADKNQVAAEVAKLLDLKKQLALAEGKPIETPKGKKKK
For B7, in the data set with DYT-TOR1A MEF EVs [1], the “DYT1/DYT1 + RTV” value is recorded as “DOWN”, the “RTV Corrective Direction” value was “Yes” and the “Sal Corrective Direction” value is reported as “No”. Further, in the data set on WT MEF EVs, the “WT + ISRIB/WT” value is “DOWN”. For the same molecule, the DYT1/WT entry with DYT-TOR1A MEF EVs [2] is listed as “DOWN”.

B8: Hist1h1b (protein, UniProt P43276 2-223, looked up)
Histone H1.5: SETAPAETAAPAPVEKSPAKKKTTKKAGAAKRKATGPPVSELITKAVSASKERGGVSLPALKKALAAGGYDVEKNNSRIKLGLKSLVSKGTLVQTKGTGASGSFKLNKKAASGEAKPKAKKTGAAKAKKPAGATPKKPKKTAGAKKTVKKTPKKAKKPAAAGVKKVAKSPKKAKAAAKPKKAAKSPAKPKAVKSKASKPKVTKPKTAKPKAAKAKKAVSKKK
On to B8, for which, in the data set on DYT-TOR1A MEF EVs [1], the “DYT1/DYT1 + RTV” value is on record as “DOWN”, the “RTV Corrective Direction” value is reported as “Yes” and the “Sal Corrective Direction” value is reported as “No”. Moreover, in the data set on WT MEF EVs, the “WT + ISRIB/WT” value is recorded as “DOWN”. In addition, the DYT1/WT entry with DYT-TOR1A MEF EVs [2] is listed as “DOWN”.

B9: Lipg (protein, UniProt Q9WVG5 21-500, looked up)
Endothelial lipase: SITTLRPQGSLRDEHHKPTGVPATARPSVAFNIRTSKDPEQEGCNLSLGDSKLLENCGFNMTAKTFFIIHGWTMSGMFESWLHKLVSALQMREKDANVVVVDWLPLAHQLYTDAVNNTRVVGQRVAGMLDWLQEKEEFSLGNVHLIGYSLGAHVAGYAGNFVKGTVGRITGLDPAGPMFEGVDINRRLSPDDADFVDVLHTYTLSFGLSIGIRMPVGHIDIYPNGGDFQPGCGFNDVIGSFAYGTISEMVKCEHERAVHLFVDSLVNQDKPSFAFQCTDSSRFKRGICLSCRKNRCNNIGYNAKKMRKKRNSKMYLKTRAGMPFKVYHYQLKVHMFSYNNSGDTQPTLYITLYGSNADSQNLPLEIVEKIELNATNTFLVYTEEDLGDLLKMRLTWEGVAHSWYNLWNEFRNYLSQPSNPSRELYIRRIRVKSGETQRKVTFCTQDPTKSSISPGQELWFHKCQDGWKMKNKTSPFVNLA
B9: in the data set with DYT-TOR1A MEF EVs [1], the “DYT1/DYT1 + RTV” value is listed as “DOWN”, the “RTV Corrective Direction” value is listed as “Yes” and the “Sal Corrective Direction” value is given as “No”. Further, in the data set on WT MEF EVs, the “WT + ISRIB/WT” value is listed as “DOWN”. Moreover, the DYT1/WT result in the data set on DYT-TOR1A MEF EVs [2] is “DOWN”.
